{"source": "PubChem BioAssay AID504467", "about": "(National Center for Advancing Translational Sciences (NCATS), 2011)", "note": "In all, about 330,000 compounds went through this assay and about 7,700 (2.3%) were called active. This list was built around the results that the source calls inconclusive (neither active nor inactive); the mix of calls is not that of the screen. Calls come from the whole dose curve; as a rule, active = well fitted inhibition curve with a large enough effect; inconclusive = small, poorly fitted or top-dose-only effect, or effect the other way; inactive = flat fitted curve, though single readings scatter. Potencies of inconclusive entries are doubtful fits and often do not repeat. % is set by controls: 0 for no effect and ±100 for the full control effect; potency is the fitted concentration of half-maximal effect."}
{"assay": "qHTS screen for small molecules that inhibit ELG1-dependent DNA repair in human embryonic kidney (HEK293T) cells expressing luciferase-tagged ELG1; note: nearly all actives have a fitted effect of over 55% in size", "settings": "HEK293T ELG1-luciferase reporter, luminescence, 16 h, DNA damage induced by 5-fluorouridine; activity change, negative = inhibition: at 46.1 µM (top of the series)", "method_in_brief": "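Quantitative HTS, concentration-response format. 2,000 cells/well co-treated with 5-fluorouridine and compound, 16 hr in 5% CO2 at 37 °C; ONE-Glo luminescence read after 30 min.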"}
{"smiles": "Cc1cc(Nc2ccccc2)n(-c2nc3ccccc3[nH]2)n1", "activity change, negative = inhibition": "inactive: -26%"}
{"smiles": "COc1cccc(C(=O)Oc2ccc3ccc(O)cc3c2)c1", "activity change, negative = inhibition": "inactive: 5.33%"}
{"smiles": "CC(NC(=O)c1ccc(Cl)c(S(=O)(=O)N2CCCCCC2)c1)c1cccnc1", "note": "(configuration not stated)", "Potency": "inconclusive: 22.4 µM [inhibitor, single point]"}
{"smiles": "CN1CCN(C(=O)CCN2C(=O)/C(=C/c3ccccc3Cl)SC2=S)CC1", "activity change, negative = inhibition": "inactive: -3.63%"}
{"smiles": "COc1ccc(-n2ncc3c(N4CCN(Cc5ccccc5)CC4)ncnc32)cc1", "Potency": "inconclusive: 20.6 µM [inhibitor, single point]"}
{"smiles": "COC(=O)CSc1nc(NCc2ccccc2)nc(N(C)C)n1", "activity change, negative = inhibition": "inactive: 12.3%"}
{"smiles": "COc1cc(C2CC(=O)Oc3c(C(CCN4CCCC(C)C4)c4ccc(N(C)C)cc4)c(OC)cc(OC)c32)cc(OC)c1OC", "note": "(configuration not stated)", "Potency": "inconclusive: 16.4 µM [activator, partial curve, poor fit]"}
{"smiles": "Cc1ccc(C(=O)Nc2c(N)nc(SCC(=O)Nc3cc(C)on3)[nH]c2=O)cc1", "activity change, negative = inhibition": "inconclusive: 1.95% [activator]"}
{"smiles": "CCOC(=O)N1CCC(N(CCOC)C(=O)Nc2ccc(Cl)cc2)CC1", "Potency": "inconclusive: 11.6 µM [inhibitor, partial curve, poor fit]"}
{"smiles": "O=C(N/N=C1\\CCCc2c1[nH]c1ccc(Cl)cc21)c1ccncc1", "Potency": "inconclusive: 9.2 µM [activator, partial curve]"}
{"smiles": "Cc1ccc(C2=CN(Cc3ccccc3)CCC2=O)cc1", "activity change, negative = inhibition": "inactive: 0%"}
{"smiles": "COc1ccc(C2NN=C(c3ccc(C)cc3)S2)cc1OC", "note": "(configuration not stated)", "Potency": "inconclusive: 8.2 µM [activator, partial curve]"}
{"smiles": "COc1ccc(CN2CCNC(=O)C2CC(=O)NC2CCOCC2)c(F)c1", "note": "(configuration not stated)", "Potency": "inconclusive: 18.3 µM [activator, partial curve, poor fit]"}
{"smiles": "Cc1ccc(-n2nc3ccc(NC(=O)C(C)C)cc3n2)cc1", "Potency": "inconclusive: 1.64 µM [activator, full curve]"}
{"smiles": "COc1ccc(NC(=O)CC(C)c2ccccc2)c([N+](=O)[O-])c1", "note": "(configuration not stated)", "Potency": "inconclusive: 20.6 µM [activator, single point]"}
{"smiles": "Cc1ccc(C(=O)OCC(=O)Nc2ccccc2)cc1S(=O)(=O)N1CCCCC1", "Potency": "inconclusive: 25.9 µM [inhibitor, partial curve]"}
{"smiles": "CN(Cc1ccccc1)C(=O)COC(=O)/C=C/c1ccco1", "activity change, negative = inhibition": "inactive: 1.87%"}
{"smiles": "CSc1ccc(/C=C/c2ccc3cccc(O)c3n2)cc1", "Potency": "inconclusive: 2.06 µM [activator, partial curve]"}
{"smiles": "O=C(NC1CCOc2ccccc21)c1ccccn1", "note": "(configuration not stated)", "activity change, negative = inhibition": "inactive: -3.84%"}
{"smiles": "CC(C)CC1Nc2ncnc(N3CCN(c4ccccc4)CC3)c2N(Cc2ccccc2)C1=O", "note": "(configuration not stated)", "Potency": "inconclusive: 25.9 µM [activator, single point]"}
{"smiles": "CSc1ccc(/C=N/Nc2cccc(C(=O)O)c2)cc1", "Potency": "inconclusive: 0.0651 µM [activator, full curve, poor fit]"}
{"smiles": "CCn1c(-c2cc(OC)c(OC)c(OC)c2)n[nH]c1=S", "Potency": "inconclusive: 0.164 µM [activator, full curve, poor fit]"}
{"smiles": "CCN(CC)S(=O)(=O)c1ccc(N2CCOCC2)c(NC(=O)c2cccc3ccccc23)c1", "Potency": "inconclusive: 18.4 µM [inhibitor, single point]"}
{"smiles": "C/C(=N\\Nc1nc(N)cc(Cl)n1)c1cccc(N)c1", "Potency": "inconclusive: 29.1 µM [activator, single point]"}
{"smiles": "Cc1ccc2nc(Nc3ccccc3)cc(C)c2c1", "Potency": "inconclusive: 31.6 µM [activator, single point]"}
{"smiles": "O=C(/C=C/c1ccccc1Cl)N(Cc1cccs1)C1CCS(=O)(=O)C1", "note": "(configuration not stated)", "Potency": "inconclusive: 29.1 µM [inhibitor, single point]"}
{"smiles": "CC(=O)NCCC(=O)Nc1nc2ccc(Oc3ccccc3)cc2s1", "Potency": "inconclusive: 6.51 µM [activator, partial curve]"}
{"smiles": "CCCc1nc(SCC(=O)N2CCN(c3ccccc3)CC2)c2c(=O)n(C)c(=O)n(C)c2n1", "Potency": "inconclusive: 4.61 µM [inhibitor, full curve]"}
{"smiles": "C/C(=N\\NC(=S)NC(C)C)c1ccccc1", "activity change, negative = inhibition": "inactive: 1.6%"}
{"smiles": "Cc1cccc(OCCn2c(-c3ccco3)nc3ccccc32)c1", "Potency": "inconclusive: 31.6 µM [activator, single point]"}
{"smiles": "COc1ccc(CCN2C(=O)N(c3ccc(OC)cc3)C(=O)C2CC(=O)Nc2ccc(OC)cc2)cc1", "note": "(configuration not stated)", "Potency": "inconclusive: 23.1 µM [inhibitor, single point]"}
{"smiles": "COc1cccc(NC(=O)COC(=O)c2c(C)nn(-c3ccccc3)c2C)c1", "Potency": "inconclusive: 29.1 µM [inhibitor, single point]"}
{"smiles": "O=c1oc(-c2ccco2)nc2c1cnn2-c1ccccc1", "activity change, negative = inhibition": "inactive: 0.959%"}
{"smiles": "Cc1[nH]c2ccc(C(=O)OCCN(C)C)cc2c1C", "Potency": "inconclusive: 16.4 µM [activator, partial curve, poor fit]"}
{"smiles": "c1ccc(-c2c[n+]3c(n2-c2ccccc2)CCC3)cc1", "Potency": "inconclusive: 6.51 µM [inhibitor, single point]"}
{"smiles": "O=C(NNC(=S)Nc1ccc(Cl)cc1Cl)C1CC1", "Potency": "inconclusive: 14.6 µM [activator, single point]"}
{"smiles": "NCCOc1ccc(C2CCCCC2)cc1", "Potency": "inconclusive: 4.11 µM [activator, single point]"}
{"smiles": "Cc1ccc(OCC(=O)N/N=C2/SCC(=O)N2Cc2ccco2)cc1", "activity change, negative = inhibition": "inactive: -3.46%"}
{"smiles": "C[C@@]12C(=O)N(c3cccc(F)c3)C(=O)N1[C@@H]1c3ccccc3OC[C@@H]1[C@H]2c1ccccc1", "Potency": "inconclusive: 32.6 µM [inhibitor, single point]"}
{"smiles": "COc1cccc(C(N)=O)c1OC(=O)Cc1ccccc1F", "Potency": "inconclusive: 20.6 µM [activator, single point]"}
{"smiles": "Cc1ccc(C)c2[nH]c(=O)c(CN(CCN3CCCC3)C(=O)Nc3ccc(F)cc3)cc12", "Potency": "inconclusive: 29.1 µM [inhibitor, single point]"}
{"smiles": "COc1ccc(C(=O)N/N=C/c2ccc(OC)c(OS(=O)(=O)c3ccccc3)c2)cc1", "Potency": "inconclusive: 29.1 µM [inhibitor, single point]"}
{"smiles": "CC1=NNC(=O)C1C(c1cccc(O)c1)C(C#N)C#N", "note": "(configuration not stated)", "Potency": "inconclusive: 23.1 µM [activator, single point]"}
{"smiles": "COc1cccc(/C=N/NC(=O)c2ccc3nc[nH]c3c2)c1O", "activity change, negative = inhibition": "inactive: -4.21%"}
{"smiles": "O=C(Cc1c(F)cccc1Cl)Nc1nccs1", "activity change, negative = inhibition": "inactive: 0.33%"}
{"smiles": "Cc1ccc(-n2ncc3c2CCCC3NC(=O)CSc2ccccn2)cc1C", "note": "(configuration not stated)", "Potency": "inconclusive: 29.1 µM [inhibitor, single point]"}
{"smiles": "COc1ccc(S(=O)(=O)N2CCN(C(=O)CN3C(=O)NC4(CCCC4)C3=O)CC2)cc1", "Potency": "inconclusive: 0.651 µM [inhibitor, single point]"}
{"smiles": "COc1ccc(-c2csc(N(CC3CCCO3)C(=O)c3ccccc3)n2)cc1", "note": "(configuration not stated)", "Potency": "active: 8.2 µM"}
{"smiles": "O=C(CCS(=O)(=O)Cc1ccccc1F)NCCc1ccc(Cl)cc1", "Potency": "inconclusive: 4.61 µM [activator, partial curve, poor fit]"}
{"smiles": "COC(=O)CSc1nnc(SCc2ccc(Cl)cc2)s1", "Potency": "inconclusive: 20.6 µM [activator, partial curve, poor fit]"}
{"smiles": "Cc1nn2c(=O)c(NC(=O)c3ccc(Cl)cc3)cnc2s1", "Potency": "inconclusive: 7.3 µM [activator, partial curve]"}
{"smiles": "COc1cccc(Nc2nc(N)c([N+](=O)[O-])c(NCc3ccco3)n2)c1", "Potency": "inconclusive: 29.1 µM [inhibitor, single point]"}
{"smiles": "CC1CCCN(Cc2nc3c(c(=O)n(C)c(=O)n3C)n2Cc2c(F)cccc2Cl)C1", "note": "(configuration not stated)", "activity change, negative = inhibition": "inactive: 0.698%"}
{"smiles": "Cc1c(NS(=O)(=O)c2ccc(N=NN(C)C)cc2)c(=O)n(-c2ccccc2)n1C", "Potency": "inconclusive: 0.0461 µM [activator, single point]"}
{"smiles": "CSc1nc2c(c(=O)[nH]1)C(c1cccc(Br)c1)CC(=O)N2", "note": "(configuration not stated)", "Potency": "inconclusive: 18.3 µM [activator, partial curve, poor fit]"}
{"smiles": "CCNC(=S)N1N=C2c3ccccc3CCC2C1c1ccc(F)cc1", "note": "(configuration not stated)", "Potency": "inconclusive: 14.6 µM [inhibitor, partial curve, poor fit]"}
{"smiles": "CC1CCN(C(=O)c2ccc(S(=O)(=O)Cc3cc(F)ccc3F)c([N+](=O)[O-])c2)CC1", "Potency": "inconclusive: 7.31 µM [inhibitor, partial curve]"}
{"smiles": "CC(C)(C)c1cc(C(=O)N/N=C/c2ccccc2O)n(-c2ccccc2)n1", "Potency": "inconclusive: 5.8 µM [inhibitor, partial curve, poor fit]"}
{"smiles": "O=C1Nc2cc(C(=O)NCCCN3CCCC3)ccc2S/C1=C\\c1ccccc1", "Potency": "inconclusive: 18.3 µM [activator, partial curve, poor fit]"}
{"smiles": "Cc1ccc(S(=O)(=O)/N=C2/NC(=O)/C(=C\\c3cc(Br)cc(Br)c3O)S2)cc1", "activity change, negative = inhibition": "inactive: 0.123%"}
{"smiles": "O=C(COc1ccc(S(=O)(=O)N2CCCC2)cc1)N1CCCC1", "activity change, negative = inhibition": "inactive: 8.96%"}
{"smiles": "Cc1ccc(-c2nc3sc4c(c3c(=O)n2N)CCCC4)cc1", "Potency": "inconclusive: 4.61 µM [activator, partial curve]"}
{"smiles": "Cc1nnc(NC(=O)CSc2n[nH]c(-c3ccccc3C)n2)s1", "Potency": "inconclusive: 16.4 µM [activator, partial curve, poor fit]"}
{"smiles": "O=C(Nc1ccc(S(=O)(=O)N2CCCC2)cc1)C1CCCN1C(=O)c1cccs1", "note": "(configuration not stated)", "activity change, negative = inhibition": "inactive: -0.718%"}
{"smiles": "C=C(C)CNC(=O)c1ccc(OC2CCN(S(=O)(=O)N(C)C)CC2)cc1", "Potency": "inconclusive: 25.9 µM [inhibitor, single point]"}
{"smiles": "CC(NS(=O)(=O)c1cccc(Cl)c1)C(=O)Nc1ccc(-c2nc3ccccc3s2)cc1", "note": "(configuration not stated)", "Potency": "inconclusive: 3.66 µM [activator, single point]"}
{"smiles": "COc1ccc(CCNC(=O)c2cccc(-n3cnnn3)c2)cc1", "Potency": "inconclusive: 23.1 µM [inhibitor, partial curve, poor fit]"}
